Test results reported in publication PMC5643311.
Numbering of substitutions follows the chain as printed. These are yes or no findings as the source states them, for the method shown. In cells and extracts the contact can be indirect. Some entries that bind do so weakly or less than the wild type. For some of these results: Tags and fused reporters may be left off the sequences shown.

The chains behind the UniProt entries cited, without tags or fusion partners.
UniProt Q9UBN7: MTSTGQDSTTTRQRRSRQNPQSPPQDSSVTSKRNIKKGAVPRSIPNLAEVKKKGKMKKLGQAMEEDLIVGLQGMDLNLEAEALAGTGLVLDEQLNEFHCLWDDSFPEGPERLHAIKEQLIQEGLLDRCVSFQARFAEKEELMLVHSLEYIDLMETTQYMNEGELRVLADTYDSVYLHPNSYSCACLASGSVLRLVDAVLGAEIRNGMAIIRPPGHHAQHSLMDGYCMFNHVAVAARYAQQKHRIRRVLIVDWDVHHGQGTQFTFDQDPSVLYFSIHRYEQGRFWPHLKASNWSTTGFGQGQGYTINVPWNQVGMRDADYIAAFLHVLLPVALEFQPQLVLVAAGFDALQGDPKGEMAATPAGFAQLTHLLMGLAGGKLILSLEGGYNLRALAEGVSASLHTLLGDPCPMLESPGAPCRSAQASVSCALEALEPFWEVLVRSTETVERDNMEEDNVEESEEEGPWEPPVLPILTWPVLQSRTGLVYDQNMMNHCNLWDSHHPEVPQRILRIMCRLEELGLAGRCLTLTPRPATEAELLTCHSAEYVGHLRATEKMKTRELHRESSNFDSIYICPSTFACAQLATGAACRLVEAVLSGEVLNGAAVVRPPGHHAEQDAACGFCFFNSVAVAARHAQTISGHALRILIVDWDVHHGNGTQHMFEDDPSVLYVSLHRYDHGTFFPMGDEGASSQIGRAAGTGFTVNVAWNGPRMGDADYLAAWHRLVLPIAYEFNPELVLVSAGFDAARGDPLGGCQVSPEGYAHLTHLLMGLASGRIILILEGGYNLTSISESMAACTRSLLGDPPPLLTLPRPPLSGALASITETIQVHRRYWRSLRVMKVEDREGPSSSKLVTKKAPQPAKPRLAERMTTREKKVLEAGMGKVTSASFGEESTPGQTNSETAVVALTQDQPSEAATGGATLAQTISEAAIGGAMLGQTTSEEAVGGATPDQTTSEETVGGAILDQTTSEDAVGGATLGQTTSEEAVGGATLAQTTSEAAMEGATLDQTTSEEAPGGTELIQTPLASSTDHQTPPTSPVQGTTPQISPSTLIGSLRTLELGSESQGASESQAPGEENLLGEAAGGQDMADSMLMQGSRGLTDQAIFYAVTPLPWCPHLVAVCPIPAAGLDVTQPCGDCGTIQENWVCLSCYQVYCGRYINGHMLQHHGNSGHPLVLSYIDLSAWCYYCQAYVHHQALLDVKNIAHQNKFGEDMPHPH

Tests used:
[1] = molecular target: T1, migration and invasion inhibitory protein (MIIP), endogenous (human (endogenous in HCT116, SW480)) (UniProt Q5JXC2); assay: co-IP; two-step: HCT116 cells with EGF (100 ng/ml, 30 min); immunoprecipitation with anti-Flag (Flag-RelA), elution with Flag peptides, second immunoprecipitation with anti-MIIP; immunoblot
T1 sequence (chain, phosphoserine at 303 in EGF-stimulated cells): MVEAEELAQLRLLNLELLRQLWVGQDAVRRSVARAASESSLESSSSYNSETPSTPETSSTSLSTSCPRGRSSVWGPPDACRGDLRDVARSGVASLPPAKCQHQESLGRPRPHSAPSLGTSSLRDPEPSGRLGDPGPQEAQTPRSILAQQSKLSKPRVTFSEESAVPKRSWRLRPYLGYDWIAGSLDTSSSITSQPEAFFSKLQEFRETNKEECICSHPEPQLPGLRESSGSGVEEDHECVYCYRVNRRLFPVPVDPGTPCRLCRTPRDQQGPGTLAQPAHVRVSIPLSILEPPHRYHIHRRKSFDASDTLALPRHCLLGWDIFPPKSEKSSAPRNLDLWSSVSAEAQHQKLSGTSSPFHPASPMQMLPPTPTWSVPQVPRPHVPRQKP

[2] = molecular target: T2, Flag-MIIP S303A (human) (UniProt Q5JXC2); assay: co-IP; cells expressing MIIP S303A, with or without EGF (Supplementary Fig. 4a; legend not shown, method taken from the paper's other experiments in cells)
T2 sequence: T1 sequence (chain, phosphoserine at 303 in EGF-stimulated cells) with S303A

[3] = molecular target: T1, migration and invasion inhibitory protein (MIIP), endogenous (human (endogenous in HCT116, SW480)); assay: co-IP; SW620 cells with EGF, HDAC6–MIIP–RelA complex, dependent on PKCε activation (Supplementary Fig. 6c; legend not shown)
[4] = molecular target: T1, migration and invasion inhibitory protein (MIIP), endogenous (human (endogenous in HCT116, SW480)); assay: co-IP; CaCo2 cells with EGF, trimer complex (Supplementary Fig. 4h; legend not shown)

Measured: binding

histone deacetylase 6 (HDAC6), endogenous (from UniProt Q9UBN7 1-1215) (enzyme)
binds: all assays above
